{"source": "paper PMC4667195", "about": "(Scientific Reports, 2015)", "assay": "general procedure: Fmoc solid-phase peptide synthesis; Novasyn TGR; HBTU/N,N-diisopropylethylamine", "details": "conjugation step, UV 220 nm", "note": "Strings that start with PEPTIDE1 are HELM notation: dots part the residues, brackets hold end groups and non-standard residues.", "data": [{"substance": "PEPTIDE1{[pGlu].L.Y.E.N.K.P.R.R.P.Y.I.L.K.K.[PEG12].C.[am]}|PEPTIDE2{[pGlu].L.Y.E.N.K.P.R.R.P.Y.I.L}|PEPTIDE3{[pGlu].L.Y.E.N.K.P.R.R.P.Y.I.L.K}|PEPTIDE4{[pGlu].L.Y.E.N.K.P.R.R.P.Y.I.L}|CHEM1{[SuccPr-2'-PTX]}$PEPTIDE1,PEPTIDE2,14:R3-13:R2|PEPTIDE1,PEPTIDE3,15:R3-14:R2|PEPTIDE3,PEPTIDE4,14:R3-13:R2|PEPTIDE1,CHEM1,17:R3-1:R1$$$V2.0", "values": [{"measurement": "final HPLC purity", "value": "more than 90%"}]}]}
